Results are given in words; binding and its absence hold for the method and conditions named. Some results given as binding are weak or reduced against the parent protein; the word gives no strength.
T1: HMGB1 B-box peptide 91-108 (UniProt P09429)
T1 sequence (peptide, biotinylated, looked up): DPNAPKRPPSAFFLFCSE

Chains of the proteins cited; added tags and fusions are not shown.
UniProt P09429: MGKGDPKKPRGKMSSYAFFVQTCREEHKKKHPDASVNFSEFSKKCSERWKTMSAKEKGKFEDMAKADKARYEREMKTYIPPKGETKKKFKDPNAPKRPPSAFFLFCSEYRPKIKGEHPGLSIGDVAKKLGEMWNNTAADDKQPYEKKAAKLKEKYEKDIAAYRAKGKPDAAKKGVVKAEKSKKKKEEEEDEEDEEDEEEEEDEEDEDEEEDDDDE


Tests used:
[1] = molecular target: T1, HMGB1 B-box peptide 91-108; test: ELISA on biotinylated overlapping peptides, FIG. 5C
[2] = molecular target: HMGB1 in human sepsis sera (human) (UniProt P09429); test: immunoprecipitation and Western blot
[3] = molecular target: T1, HMGB1 B-box peptide 91-108; test: ELISA, biotinylated peptide on NeutrAvidin plate, antibody serially diluted from 10 ug/ml, anti-human IgG-HRP, OD 450
[4] = molecular target: T1, HMGB1 B-box peptide 91-108; test: ELISA on biotinylated overlapping peptides

binding [1] | binding [2] | binding [3] | binding [4] | Binder
binds | binds | binds | binds | human anti-HMG1 antibody G4 (antibody, IgG1, V domains shown) VH: EVQLLESGGGLVQPGGSLRLSCAASGFTFSWYDMTWVRQAPGKGLEWVSSISPSGGYTKYADSVKGRFTISRDNSKNTLYLQMNSLRAEDTAVYYCTTEFYDYLDVWGKGTTVTVSS VL: DIQMTQSPGTLSLSPGEGATLSCRASQSVSSTYLAWYQQKPGQAPRLLIYEASKRATGTPARFSGSGSGTDFTLSISSLEPEDFAVYYCQHRHNWPPQWTFGQGTKVEVK
binds | – | binds | binds | human anti-HMG1 antibody S16 (antibody, IgG1, V domains shown) VH: EVQLLESGGGLVQPGGSLRLSCAASGFTFSWYSMLWVRQAPGKGLEWVSYISPSGGFTNYADSVKGRFTISRDNSKNTLYLQMNSLRAEDTAVYYCARWDYNSGWYYDHWGQGTLVTVSS VL: DIQMTQSPDTLSLSPGERATLSCRASQSVNSRNLAWYQQKPGQAPRLLIYGASTRATGIPDRFSGSVSGTEFTLTISSLQPDDFATYYCQQYNSYFTFGQGTKLEIK

Reference: US20110287023A1
